Results from patent US20260139066A1 (VRIJE UNIVERSITEIT BRUSSEL, published 2026).
No constants are given. Whether binding was seen depends on the method and setting. Sequences can lack the tags named with a protein.

T1: murine urokinase plasminogen activator receptor, recombinant extracellular domain protein (murine) (UniProt P35456)
T1 sequence (looked up): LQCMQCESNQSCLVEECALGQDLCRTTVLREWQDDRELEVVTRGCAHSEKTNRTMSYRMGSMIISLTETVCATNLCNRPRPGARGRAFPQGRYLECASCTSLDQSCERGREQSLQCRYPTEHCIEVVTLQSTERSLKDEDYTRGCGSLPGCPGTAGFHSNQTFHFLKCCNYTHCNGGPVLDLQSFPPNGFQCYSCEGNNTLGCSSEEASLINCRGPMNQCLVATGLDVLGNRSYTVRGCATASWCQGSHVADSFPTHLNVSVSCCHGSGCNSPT

B1: sdAb 15 (clone 5A4) with carboxy-terminal hexahistidine tag (VHH)
VHH: QVQLQESGGGWVQPGGSLRLSCAASGFTLDYYGIGWFRQAPGKEREGVSCISSSDGSTYYADSVKGRFTISRDNAKNTVYLQMNSLKPEDTAVYYCATRGASCYYTGSYSLGYDYWGQGTQVTVSS
notes: Lead compound; C-terminal 6His for purified-protein SPR; koff screen used bacterial extracts of the pMECS-GG construct; also called sdAb15.6His; Nr 15
B2: sdAb 16 (clone 5A5) with carboxy-terminal hexahistidine tag (VHH)
VHH: QVQLQESGGGLVQPGGSLRLSCAISGFTLDYYGIGWFRQAPGKEREGVSCISSSDGSTYYADSVKGRFTISRDNAKNTVYLQMNSLKPEDTAVYYCATRGASCYYSGSYSLGYDYWGQGTQVTVSS
notes: C-terminal 6His for purified-protein SPR; koff screen used bacterial extracts; also called Nr 16
B3: sdAb 18 (clone 5H2) with carboxy-terminal hexahistidine tag (VHH)
VHH: QVQLQESGGGLAQPGGSLRLSCTASGFTSDYYGIGWFRQAPGKEREGVSCISSSDGSTYYADSVKGRFTISRDNAKNTVYLQMNSLKPEDTAVYYCATRGASCYYTGSYSLGYDYWGQGTQVTVSS
notes: C-terminal 6His for purified-protein SPR; koff screen used bacterial extracts; also called Nr 18
B4: sdAb 17 (clone 5B7) with carboxy-terminal hexahistidine tag (VHH)
VHH: QVQLQESGGGLVQPGGSLRLSCAVSGSTLEYYGIGWFRQAPGKEREGVSCISSSDGSTYYADSVKGRFTISRDNAKNTVYLQMNSLKPEDTAVYYCATRGASCYYTGSYSLGYDYWGQGTQVTVSS
notes: C-terminal 6His for purified-protein SPR; koff screen used bacterial extracts; also called Nr 17

target: T1, murine urokinase plasminogen activator receptor, recombinant extracellular domain protein (murine); assay: SPR, purified sdAbs on recombinant uPAR

binding, no binding:
B1
B2
B3
B4
